Measurements as given in paper doi:10.1101/433045 (bioRxiv, 2020).
Results are given in words; binding and its absence hold for the method and conditions named. In cells and extracts the contact can be indirect. Some entries that bind do so weakly or less than the wild type.

Sequences of proteins named here, by UniProt entry; tags and fusion partners are left off. A change or cut given only in a name is not applied to a line headed by its entry.
UniProt P04050, whole entry: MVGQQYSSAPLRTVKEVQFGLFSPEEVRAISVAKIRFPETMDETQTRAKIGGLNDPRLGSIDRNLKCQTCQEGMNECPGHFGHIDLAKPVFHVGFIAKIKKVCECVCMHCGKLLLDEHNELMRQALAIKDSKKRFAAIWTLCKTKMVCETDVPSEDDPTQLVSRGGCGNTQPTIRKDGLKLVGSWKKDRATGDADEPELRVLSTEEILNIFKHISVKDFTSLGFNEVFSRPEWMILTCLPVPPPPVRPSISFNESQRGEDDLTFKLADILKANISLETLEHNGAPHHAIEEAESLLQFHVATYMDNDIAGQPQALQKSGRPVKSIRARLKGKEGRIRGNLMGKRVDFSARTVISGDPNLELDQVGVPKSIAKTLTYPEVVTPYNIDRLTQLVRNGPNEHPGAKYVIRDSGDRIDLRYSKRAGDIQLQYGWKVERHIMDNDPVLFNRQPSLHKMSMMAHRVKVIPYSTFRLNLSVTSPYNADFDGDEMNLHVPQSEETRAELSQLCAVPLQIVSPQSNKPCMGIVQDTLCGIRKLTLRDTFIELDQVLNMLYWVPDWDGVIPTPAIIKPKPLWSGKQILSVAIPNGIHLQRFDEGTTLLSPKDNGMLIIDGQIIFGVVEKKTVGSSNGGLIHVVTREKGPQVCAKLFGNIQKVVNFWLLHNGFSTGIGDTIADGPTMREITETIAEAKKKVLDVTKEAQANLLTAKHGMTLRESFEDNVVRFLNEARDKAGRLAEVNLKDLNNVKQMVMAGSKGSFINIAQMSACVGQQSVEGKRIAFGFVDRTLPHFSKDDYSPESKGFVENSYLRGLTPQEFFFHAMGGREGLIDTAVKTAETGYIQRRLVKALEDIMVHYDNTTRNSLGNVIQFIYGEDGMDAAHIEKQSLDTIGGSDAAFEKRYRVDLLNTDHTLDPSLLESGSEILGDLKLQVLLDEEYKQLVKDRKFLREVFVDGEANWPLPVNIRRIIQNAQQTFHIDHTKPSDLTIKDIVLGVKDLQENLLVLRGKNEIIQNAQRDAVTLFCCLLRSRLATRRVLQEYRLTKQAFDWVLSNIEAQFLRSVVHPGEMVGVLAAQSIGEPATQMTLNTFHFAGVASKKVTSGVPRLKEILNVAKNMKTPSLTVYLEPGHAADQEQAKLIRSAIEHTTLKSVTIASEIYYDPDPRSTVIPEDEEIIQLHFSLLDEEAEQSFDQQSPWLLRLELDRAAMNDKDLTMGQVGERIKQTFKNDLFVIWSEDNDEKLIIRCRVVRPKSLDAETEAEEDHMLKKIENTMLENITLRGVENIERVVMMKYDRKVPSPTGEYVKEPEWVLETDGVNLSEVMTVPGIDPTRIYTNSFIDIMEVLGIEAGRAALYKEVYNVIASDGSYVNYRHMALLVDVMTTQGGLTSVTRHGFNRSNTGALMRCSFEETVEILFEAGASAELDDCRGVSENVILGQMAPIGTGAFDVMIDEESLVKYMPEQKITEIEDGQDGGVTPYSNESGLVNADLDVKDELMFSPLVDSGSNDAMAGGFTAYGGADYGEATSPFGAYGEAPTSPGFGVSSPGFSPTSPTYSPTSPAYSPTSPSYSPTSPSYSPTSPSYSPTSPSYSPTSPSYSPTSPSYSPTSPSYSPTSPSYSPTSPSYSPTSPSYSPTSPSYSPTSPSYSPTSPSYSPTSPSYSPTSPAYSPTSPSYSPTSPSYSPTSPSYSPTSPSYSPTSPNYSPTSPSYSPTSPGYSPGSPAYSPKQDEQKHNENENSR

B1: Nrd1 (protein, UniProt P53617 1-575)
chain: MQQDDDFQNFVATLESFKDLKSGISGSRIKKLTTYALDHIDIESKIISLIIDYSRLCPDSHKLGSLYIIDSIGRAYLDETRSNSNSSSNKPGTCAHAINTLGEVIQELLSDAIAKSNQDHKEKIRMLLDIWDRSGLFQKSYLNAIRSKCFAMDISNNTANTASQQLSLDPKQRSKQILSNLKKSPPLNLNISLPTDLTSTDPAKQQAALFQVIAALQKHFKTLPSHTSVGTVAPPQAHTITEYGSRRERERERERYNSRRNRSRSPPAPFSQPSTGRKDRYPSVAQDQYSIGAPNTTFGTNNHHLYPDELNVSNNPHYRPKPVSYDSTLPPDHIKVYSRTLFIGGVPLNMKEWDLANVLKPFAEVQSVILNNSRKHAFVKVYSRHEAENVLQNFNKDGALPLRTRWGVGFGPRDCCDYQHGYSIIPMHRLTDADKKWSVSAQWGGTSGQPLVTGIVFEEPDIIVGEGVSSKAISQKMPTDSGRNGPRSGKPNKSGSISSISPVPYGNAPLASPPPQQYVQPMMQQPYGYAPNQPLPSQGPAAAAPPVPQQQFDPTAQLNSLMNMLNQQQQQQQQS

Experiments:
Assay in all cases: co-IP
TAP-Sen1 (S. cerevisiae) = TAP-Sen1 (S. cerevisiae) (UniProt Q00416)
[1] = target: TAP-Sen1ΔNter (S. cerevisiae) (UniProt Q00416)
[2] = target: HA-tagged Sen1 (wt) (S. cerevisiae) (UniProt Q00416)

Molecule	binding (TAP-Sen1 (S. cerevisiae))	binding [1]	binding [2]
RNAPII with unphosphorylated CTD (Rpb1) (from UniProt P04050 1-1733)	binds	binds	
B1			binds
